The name of at least one read-out is uncertain.
target: T1, Na^+,K^+ -ATPase (Homo sapiens, UniProt P05023); test: displacement of the specific 3H-ouabain binding from the purified Na+,K+-ATPase receptor; settings: 3H-ouabain displacement
T1 construct: Na^+,K^+ -ATPase receptor purified according to Jorghensen; from tissue
Source text: (§1) To test the affinity for the receptor site of the Na^+,K^+ -ATPase and the inhibitory activity on the enzyme, the following tests were used: a) displacement of the specific ^3 H-ouabain binding from the Na^+,K^+ -ATPase receptor purified according to Jorghensen (Jorghensen P., BBA, 1974, 356, 36) and Erdmann (Erdmann E. et at., Arzneim.Forsh., 1984, 34, 1314): b) inhibition of the activity of the purified Na^+,K^+ -ATPase measured as % of hydrolysis of ^32 P-ATP in presence and in absence of the tested compound (Doucet A. et at., Am.

Row | SMILES | Binding ^3 H-Ouab. Displacement log IC50
1 | Cc1ncc([C@@]2(O)CC[C@]3(O)[C@@H]4CC=C5C[C@@H](O)CC[C@]5(C)[C@H]4CC[C@]23C)n1C [Comp. I - bo, 17β-(1,2-Dimethyl-5-imidazolyl)androst-5-ene-3β,14β,17α-triol] | 5.0
2 | C[C@]12CC[C@H]3[C@@H](CCC4=C[C@@H](OCCCN)CC[C@@]43C)[C@@]1(O)CC[C@]2(OCCCN)c1ccoc1 [Comp. I - al, 3β,17α-Bis(3-aminopropoxy)-17α-(3-furyl)androst-4-ene-14β,17α-diol] | 5.0
3 | C[C@]12CC[C@H]3[C@@H](CCC4=CC(=O)CC[C@@]43C)[C@@]1(O)CC[C@]2(O)c1ccccc1 [Comp. I - af, 14β,17α-Dihydroxy-17β-phenylandrost-4-en-3-one] | 5.1
4 | C[C@]12CC[C@H](O)C[C@@H]1CC[C@@H]1[C@@H]2CC[C@]2(C)[C@@](O)(c3ccc[n+]([O-])c3)CC[C@]12O [Comp. I - bm, 17β-(3-Pyridyl-N-oxide)-5α-androstane-3β,14β,17α-triol] | 5.0

target: T1, Na^+,K^+ -ATPase; test: inhibition of the activity of the purified Na+,K+-ATPase measured as % of hydrolysis of 32P-ATP; type: biochemical; settings: 32P-ATP hydrolysis
Source text: as §1

Row | SMILES | Inhibitory Activity log IC50
5 | C[C@]12CC[C@H]3[C@@H](CCC4=CC(=O)CC[C@@]43C)[C@@]1(O)CC[C@]2(O)c1ccccc1 [Comp. I - af, 14β,17α-Dihydroxy-17β-phenylandrost-4-en-3-one] | 4.1
6 | C[C@]12CC[C@H]3[C@@H](CCC4=C[C@@H](OCCOCCN5CCCC5)CC[C@@]43C)[C@@]1(O)CC[C@]2(O)c1ccoc1 [Comp. I - bs, 3β-(2-(2-(1-Pyrrolidinyl)ethoxy)ethoxy)-17β-(3-furyl)androst-4-ene-14β,17α-diol] | 4.4
